# Drug screen on melanoma cell lines: cell count

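The test systems are human melanoma cell lines, treated with a pair of drugs for 72 h and then stained and imaged. The read-out is cell count (nuclei) in % of the DMSO control; lower values mean stronger growth inhibition or killing. Concentrations were fixed for each drug; these are the higher of two levels. These are primary screening values without error estimates.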 Only some of the drugs and lines screened are listed, without regard to their results.

First drug in all entries: docetaxel, 0.0005 µM, CC(=O)O[C@@]12CO[C@@H]1C[C@H](O)[C@@]1(C)C(=O)[C@H](O)C3=C(C)[C@@H](OC(=O)[C@H](O)[C@@H](NC(=O)OC(C)(C)C)c4ccccc4)C[C@@](O)([C@@H](OC(=O)c4ccccc4)[C@H]21)C3(C)C

Second drug,COLO 792,WM3619,COLO 800,C32,COLO 829
Cn1cc(/C=C2\C(=O)Nc3cccnc32)c2ccccc21 at 2 µM,20.8,56.2,19.4,65.5,30.8
N.N.[Cl][Pt][Cl] at 8 µM,8.1,48.5,35.9,81.2,28.1
CC(C)CCN1c2nc(Nc3cc(F)c(O)c(F)c3)ncc2N(C)C(=O)C1C (stereo not given) at 1 µM,22.3,42.6,17.7,52.7,43.8
O=C(O)C(=O)Nc1sc2c(c1C(=O)O)CCNC2 at 8.33 µM,17.0,41.2,26.6,70.5,49.1
COc1ccc(-c2ccc3c(N4CCOCC4)nc(N4C[C@@H](C)O[C@@H](C)C4)nc3n2)cc1CO at 0.1 µM,22.8,31.6,25.4,57.6,35.2
CNC(=O)c1cc(Oc2ccc(NC(=O)Nc3ccc(Cl)c(C(F)(F)F)c3)cc2)ccn1 at 2 µM,14.6,59.1,30.0,70.1,41.5
C/C(O)=C(\C#N)C(=O)Nc1cc(Br)ccc1Br at 10 µM,29.9,71.3,34.1,81.0,52.8
COc1cc(Nc2ncc(F)c(Nc3ccc4c(n3)NC(=O)C(C)(C)O4)n2)cc(OC)c1OC at 2 µM,11.7,55.4,21.6,55.0,38.8
O=c1cc(-c2cccc3c2Sc2ccccc2S3)oc(N2CCOCC2)c1 at 5 µM,21.9,45.0,34.5,72.2,38.9
CN(c1ncccc1CNc1nc(Nc2ccc3c(c2)CC(=O)N3)ncc1C(F)(F)F)S(C)(=O)=O at 0.4 µM,19.8,63.0,35.5,50.6,32.8
CS(=O)(=O)CCNCc1ccc(-c2ccc3ncnc(Nc4ccc(OCc5cccc(F)c5)c(Cl)c4)c3c2)o1 at 4 µM,18.2,67.2,40.2,81.9,31.6
NCC(=O)Nc1ccc(-n2nc(C(F)(F)F)cc2-c2ccc3c(ccc4ccccc43)c2)cc1 at 5 µM,13.2,25.4,18.0,66.9,32.5
NC1(c2ccc(-c3nc4ccn5c(=O)[nH]nc5c4cc3-c3ccccc3)cc2)CCC1 at 2 µM,18.7,41.0,33.5,66.2,43.1
CCc1ccc(CCOc2ccc(CC3SC(=O)NC3=O)cc2)nc1 (stereo not given) at 10 µM,21.9,46.6,43.0,80.4,63.1
Nc1nc(F)nc2c1ncn2[C@@H]1O[C@H](CO)[C@@H](O)[C@@H]1O at 1 µM,20.1,44.4,19.2,80.1,39.8
Cc1nc(Nc2ncc(C(=O)Nc3c(C)cccc3Cl)s2)cc(N2CCN(CCO)CC2)n1 at 0.02 µM,15.2,37.8,17.3,68.1,18.7
COC(=O)c1sccc1S(=O)(=O)Nc1ccc(Nc2ccccc2)cc1OC at 5 µM,32.9,50.5,43.1,62.3,39.3
O=C1NC(=O)/C(=C/c2ccc(-c3ccc(F)cc3O)o2)S1 at 5 µM,27.4,37.5,36.2,65.9,40.7
Cc1cn(-c2cc(NC(=O)c3ccc(C)c(Nc4nccc(-c5cccnc5)n4)c3)cc(C(F)(F)F)c2)cn1 at 1 µM,14.9,43.4,22.9,66.0,53.3
O=C(O)c1ccc(-c2c[nH]c3ncc(-c4ccccc4)cc23)cc1C1CCCC1 at 0.8 µM,21.3,52.0,15.6,71.8,46.5
COc1cc(N2CCC(N3CCN(C)CC3)CC2)ccc1Nc1ncc(Cl)c(Nc2ccccc2S(=O)(=O)C(C)C)n1 at 0.4 µM,22.6,60.6,71.7,48.4,38.2
Cc1cc([N+](=O)[O-])ccc1NS(=O)(=O)c1cc(Cl)ccc1Cl at 5 µM,28.6,73.1,34.3,68.9,40.1
Cn1cc(C2=C(c3cn(C4CCN(Cc5ccccn5)CC4)c4ccccc34)C(=O)NC2=O)c2ccccc21 at 4 µM,16.7,52.1,38.9,54.1,42.6
Nc1cccc2c1CN(C1CCC(=O)NC1=O)C2=O (stereo not given) at 5 µM,21.0,41.7,34.6,73.3,30.4
Cn1c(Nc2ccc(C(F)(F)F)cc2)nc2cc(Oc3ccnc(-c4ncc(C(F)(F)F)[nH]4)c3)ccc21 at 0.4 µM,11.5,34.9,32.4,37.3,41.7

3 of the entries, repeated:

| Second drug | COLO 792 | WM3619 | COLO 800 | C32 | COLO 829 |
|---|---|---|---|---|---|
| Cc1cc([N+](=O)[O-])ccc1NS(=O)(=O)c1cc(Cl)ccc1Cl at 5 µM | 28.6 | 73.1 | 34.3 | 68.9 | 40.1 |
| CCc1ccc(CCOc2ccc(CC3SC(=O)NC3=O)cc2)nc1 (stereo not given) at 10 µM | 21.9 | 46.6 | 43.0 | 80.4 | 63.1 |
| O=C1NC(=O)/C(=C/c2ccc(-c3ccc(F)cc3O)o2)S1 at 5 µM | 27.4 | 37.5 | 36.2 | 65.9 | 40.7 |

Values as published with doi:10.1371/journal.pone.0140310, rounded.